Reference: US20070140979A1, “Method for accelerating the rate of mucociliary clearance” (BAYER AKTIENGESELLSCHAFT, priority 1998, published 2007)
Not every detail of the peptide structures is certain; ends, links or a residue may be inferred.

Assay: Isoelectric point by isoelectric focusing
Format: physicochemical
Conditions: first preparation, possibly not completely deprotected; migrated to cathodic edge (pH 9.5)
Procedure: After staining, the migration distance from the cathodic edge of the gel to the different protein bands was measured. The pI of each unknown was determined by using a standard curve generated by a plot of the migration distance of standards versus the corresponding pI's. […] (Tenstad et al., 1994, Acta Physiol. Scand. 152:33-50).

CC[C@H](C)[C@H](N)C(=O)N[C@@H](Cc1c[nH]cn1)C(=O)N[C@@H](CC(=O)O)C(=O)N[C@@H](Cc1ccccc1)C(=O)N[C@H]1CSSC[C@@H](C(=O)N[C@@H](C)C(=O)N[C@H](C(=O)N[C@H](C(=O)O)C(C)C)[C@@H](C)O)NC(=O)[C@H](CCCCN)NC(=O)[C@H](CCCCN)NC(=O)[C@H](CC(C)C)NC(=O)[C@@H]2CSSC[C@@H]3NC(=O)[C@H](CO)NC(=O)CNC(=O)[C@H](CC(=O)O)NC(=O)[C@H]([C@@H](C)O)NC(=O)[C@H](C(C)C)NC(=O)[C@H](CC(N)=O)NC(=O)[C@H](Cc4ccc(O)cc4)NC(=O)[C@H](Cc4c[nH]c5ccccc45)NC(=O)[C@H](Cc4c[nH]c5ccccc45)NC(=O)[C@H](CCCNC(=N)N)NC(=O)[C@@H]4CCCN4C(=O)[C@H](CCSC)NC(=O)[C@H](CO)NC(=O)[C@H](C)NC(=O)[C@H](CCCNC(=N)N)NC(=O)[C@H](CSSC[C@H](NC(=O)CNC(=O)CNC(=O)[C@H](Cc4ccc(O)cc4)NC(=O)[C@H](C(C)C)NC(=O)[C@H](Cc4ccccc4)NC(=O)[C@H](CC(C)C)NC(=O)[C@H](CCC(N)=O)NC3=O)C(=O)N[C@@H](CC(=O)O)C(=O)NCC(=O)N[C@@H](CC(N)=O)C(=O)N[C@@H](CO)C(=O)N[C@@H](CC(N)=O)C(=O)N[C@@H](CC(N)=O)C(=O)N[C@@H](Cc3ccc(O)cc3)C(=O)N[C@@H](CC(C)C)C(=O)N[C@@H]([C@@H](C)O)C(=O)N[C@@H](CCCCN)C(=O)N[C@@H](CCC(=O)O)C(=O)N[C@@H](CCC(=O)O)C(=O)N2)NC(=O)[C@H](CCCNC(=N)N)NC(=O)CNC(=O)[C@H](C(C)C)NC(=O)[C@H](C(C)C)NC(=O)[C@H](CCCCN)NC(=O)[C@H](CO)NC(=O)[C@H](C(C)C)NC(=O)[C@H](CC(C)C)NC1=O [bikunin (7-64)]
pI compared with predicted value: much higher than the predicted value
